According to article PMC8754118, “The PqsE-RhlR Interaction Regulates RhlR DNA Binding to Control Virulence Factor Production in Pseudomonas aeruginosa” (Microbiology Spectrum, 2022):
These are yes or no findings as the source states them, for the method shown. In cells and extracts the contact can be indirect. Some results given as binding are weak or reduced against the parent protein; the word gives no strength.

Protein sequences, listed by entry. Tags and fused reporters are not part of them.
UniProt P20581: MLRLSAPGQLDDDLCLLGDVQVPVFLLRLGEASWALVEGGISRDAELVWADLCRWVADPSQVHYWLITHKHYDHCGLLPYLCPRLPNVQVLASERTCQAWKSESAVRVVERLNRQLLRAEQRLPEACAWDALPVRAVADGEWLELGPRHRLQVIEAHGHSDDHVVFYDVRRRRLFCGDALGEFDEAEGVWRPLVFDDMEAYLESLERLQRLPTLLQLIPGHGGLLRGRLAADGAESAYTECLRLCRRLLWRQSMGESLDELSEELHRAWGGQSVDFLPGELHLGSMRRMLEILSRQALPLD
UniProt P54292: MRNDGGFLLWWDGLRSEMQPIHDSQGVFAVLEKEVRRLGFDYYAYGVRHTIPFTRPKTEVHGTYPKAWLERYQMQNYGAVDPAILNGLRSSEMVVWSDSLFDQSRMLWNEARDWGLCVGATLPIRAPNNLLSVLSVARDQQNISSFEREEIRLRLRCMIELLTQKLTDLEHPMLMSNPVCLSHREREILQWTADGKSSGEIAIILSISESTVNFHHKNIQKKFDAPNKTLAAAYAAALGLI

How the values were obtained:
[1] = target: 6x-His-PqsE (wild type) (P. aeruginosa) (UniProt P20581); assay: pull-down; the same affinity purification on Ni beads with 6x-His-PqsE as bait, under varying concentrations of RhlR:mBTL (Fig. S4b)
[2] = target: 6x-His-PqsE (wild type) (P. aeruginosa) (UniProt P20581); assay: pull-down + SEC; lysates with 6x-His-PqsE and with untagged RhlR:mBTL mixed, Ni-NTA resin 2 h, eluted with 250 mM imidazole, Superdex-200 in 20 mM Tris-HCl, 150 mM NaCl, pH 8.0; complex checked by SDS-PAGE
[3] = target: 6x-His-PqsE (wild type) (P. aeruginosa) (UniProt P20581); assay: pull-down; E. coli lysate with 6x-His-PqsE (bait) combined with an equal amount of lysate with untagged RhlR:mBTL (or RhlR*, made without mBTL); MagneHis Ni-particle beads, 1 h at 4°C; 20 mM Tris-HCl, 150 mM NaCl, pH 8.0; eluted with 1 M imidazole; SDS-PAGE, Coomassie

Measured: binding

RhlR bound to meta-bromo-thiolactone (RhlR:mBTL) (from UniProt P54292 1-241) (receptor)
binds: [1] | [2] | [3]
